The values below come from the odorant receptor screen of Mainland et al. (2015).

Several values for one entry are separate records, joined by “and”; a condition that tells them apart may be missing. Equal values may be shown once. The list shows a part of the results. Each value is one well over the wells without odorant, computed here; the data are noisy.

Some test systems named below: OR1D5 clone 1692; OR1E1 clone 1257; OR1E1 clone 1546; OR1E2 C27R clone 1447; OR1E2 clone 1517; OR1F1 F75S clone 1281; OR1F12 clone 1694; OR1G1 clone 1488; OR1J1 clone 1696.
What all share (test): odorant receptor activation (CRE luciferase / Renilla) (fold of no-odor wells); higher = more activation
Holding throughout (details): 100 µM

Assay [1] concerns OR1I1 P139R/Y252S clone 1468.

As for `CCCCOC(C)=O` [butyl acetate], the odorant receptor activation with OR1D5 clone 1692 came to 0.683; in the assay with OR1E1 clone 1257, 0.82; with OR1E1 clone 1546, 0.759; in the assay on OR1E2 C27R clone 1447, 0.134; in the assay on OR1E2 clone 1517, 0.937; with OR1F1 F75S clone 1281 it was 1.1. The odorant receptor activation in the assay with OR1F12 clone 1694 came to 0.768; in the assay with OR1G1 clone 1488, 0.902; in [1], 1.31; with OR1J1 clone 1696, 1.08.
In the case of `CS` [methanethiol], the odorant receptor activation in the assay with OR1D5 clone 1692 was determined as 0.555; with OR1E1 clone 1257, 0.858; in the assay with OR1E1 clone 1546, 0.859; with OR1E2 C27R clone 1447, 1.11; in the assay on OR1E2 clone 1517 it was 1.07; in the assay on OR1F1 F75S clone 1281, 0.871. In addition, the odorant receptor activation worked out at 0.753 in the assay on OR1F12 clone 1694, 0.926 in the assay on OR1G1 clone 1488, 0.654 in assay [1] and 0.702 in the assay on OR1J1 clone 1696.
Take `CCC(C)=O` [2-butanone]: the odorant receptor activation with OR1D5 clone 1692 was 1.05; with OR1E1 clone 1257, 1.65; in the assay with OR1E1 clone 1546 it was 1.18; in the assay with OR1E2 C27R clone 1447, 0.711; in the assay on OR1E2 clone 1517 it was 1.21; in the assay with OR1F1 F75S clone 1281 it was 0.93. Besides, the odorant receptor activation with OR1F12 clone 1694 is 0.868; in the assay with OR1G1 clone 1488, 1.23; in assay [1], 1.1; with OR1J1 clone 1696 it was 0.834.
Take `CCOc1cc(C=O)ccc1O` [ethyl vanillin]: the odorant receptor activation with OR1D5 clone 1692 was 0.882; in the assay on OR1E1 clone 1257 it was 0.882 and 0.973; with OR1E1 clone 1546, 1.37; in the assay with OR1E2 C27R clone 1447, 1.14 and 1.18; in the assay with OR1E2 clone 1517 it was 1.16 and 2.5 and 1.31; in the assay with OR1F1 F75S clone 1281, 0.952 and 0.994. The odorant receptor activation in the assay with OR1F12 clone 1694 is 0.667; in the assay with OR1G1 clone 1488, 1.31 and 1.66 and 0.963; in [1] it was 1.04 and 1.18 and 0.917; in the assay on OR1J1 clone 1696, 0.679.
